## Results of single-concentration screens

Chains of the proteins cited; added tags and fusions are not shown. Residues count along the entry.
UniProt Q4DA54, 1-478: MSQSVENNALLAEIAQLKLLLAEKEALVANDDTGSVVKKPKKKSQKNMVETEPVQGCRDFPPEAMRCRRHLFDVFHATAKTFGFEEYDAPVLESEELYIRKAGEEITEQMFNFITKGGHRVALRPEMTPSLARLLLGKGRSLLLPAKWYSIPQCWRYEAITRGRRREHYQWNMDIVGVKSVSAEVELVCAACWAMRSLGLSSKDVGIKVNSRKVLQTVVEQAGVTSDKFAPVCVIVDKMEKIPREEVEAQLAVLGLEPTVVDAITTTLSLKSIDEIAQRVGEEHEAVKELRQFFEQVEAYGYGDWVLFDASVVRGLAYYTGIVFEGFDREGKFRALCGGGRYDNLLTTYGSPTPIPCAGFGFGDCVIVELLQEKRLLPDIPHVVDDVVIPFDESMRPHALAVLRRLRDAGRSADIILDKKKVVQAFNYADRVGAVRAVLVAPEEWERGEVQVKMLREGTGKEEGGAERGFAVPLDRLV
UniProt P9WPC5, whole entry: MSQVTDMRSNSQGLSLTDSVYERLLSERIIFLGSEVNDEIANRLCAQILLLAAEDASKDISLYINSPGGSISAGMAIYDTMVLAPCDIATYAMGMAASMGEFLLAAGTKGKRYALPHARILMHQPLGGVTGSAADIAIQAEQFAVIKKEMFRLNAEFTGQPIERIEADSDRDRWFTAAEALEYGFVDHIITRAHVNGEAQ
UniProt P9WPC3, whole entry partner: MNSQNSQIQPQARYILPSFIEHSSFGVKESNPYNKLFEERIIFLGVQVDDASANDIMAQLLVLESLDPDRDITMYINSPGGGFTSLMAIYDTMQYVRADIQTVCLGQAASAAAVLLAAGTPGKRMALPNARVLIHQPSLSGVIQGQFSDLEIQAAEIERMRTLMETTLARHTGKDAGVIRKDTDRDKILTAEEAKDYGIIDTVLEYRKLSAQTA
UniProt Q8IDJ8, 1-583: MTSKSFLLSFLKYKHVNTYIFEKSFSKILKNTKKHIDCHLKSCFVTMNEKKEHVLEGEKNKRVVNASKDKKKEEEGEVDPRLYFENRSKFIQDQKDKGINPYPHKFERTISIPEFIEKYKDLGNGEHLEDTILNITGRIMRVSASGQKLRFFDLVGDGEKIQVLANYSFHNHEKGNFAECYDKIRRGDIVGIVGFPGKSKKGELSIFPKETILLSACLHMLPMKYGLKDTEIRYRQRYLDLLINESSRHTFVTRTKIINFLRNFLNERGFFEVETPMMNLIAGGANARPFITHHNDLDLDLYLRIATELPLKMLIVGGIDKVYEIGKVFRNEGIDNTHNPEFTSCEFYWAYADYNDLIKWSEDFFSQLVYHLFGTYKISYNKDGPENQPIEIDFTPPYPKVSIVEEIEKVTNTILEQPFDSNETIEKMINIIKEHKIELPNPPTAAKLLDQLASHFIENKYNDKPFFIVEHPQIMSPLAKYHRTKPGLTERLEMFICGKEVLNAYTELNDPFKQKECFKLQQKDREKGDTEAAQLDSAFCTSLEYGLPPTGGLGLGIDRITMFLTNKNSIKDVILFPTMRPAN
UniProt A4I591, 1-473: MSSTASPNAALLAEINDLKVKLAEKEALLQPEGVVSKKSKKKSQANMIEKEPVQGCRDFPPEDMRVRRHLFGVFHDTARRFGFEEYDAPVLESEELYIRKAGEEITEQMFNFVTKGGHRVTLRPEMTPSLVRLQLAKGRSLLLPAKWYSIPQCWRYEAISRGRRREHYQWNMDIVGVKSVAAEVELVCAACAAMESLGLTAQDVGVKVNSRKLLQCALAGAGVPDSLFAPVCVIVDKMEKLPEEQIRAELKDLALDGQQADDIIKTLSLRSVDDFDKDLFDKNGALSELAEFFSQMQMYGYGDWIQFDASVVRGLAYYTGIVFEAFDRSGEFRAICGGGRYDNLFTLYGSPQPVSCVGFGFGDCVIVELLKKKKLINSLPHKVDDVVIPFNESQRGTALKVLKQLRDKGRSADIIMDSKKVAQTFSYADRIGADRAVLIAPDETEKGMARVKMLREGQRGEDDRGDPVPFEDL

Data taken from ChEMBL document CHEMBL3988442, “University of Dundee, Small-Polar-MMV Screening Library” (2021).

TcHisRS: 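Enzyme assay of histidyl-tRNA synthetase; the read-out is not stated. Target: Histidine-tRNA ligase, Trypanosoma cruzi CL Brener (UniProt Q4DA54). Concentration: 30 µM. The record gives no direction; compounds that gave an IC50 in retests scored well above the rest, so higher reads as stronger inhibition. Size under these conditions: about 69,000 compounds, about 31 of them at 50% or above in at least one test.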
ClpP1P2: 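Protease assay of ClpP1P2, read by the AMC dye that it sets free. Target: ClpP1P2, Mycobacterium tuberculosis (UniProt P9WPC5 and UniProt P9WPC3). Tested at 50 µM. Higher reads as stronger inhibition, judged from the few compounds that gave an IC50. Most other retested compounds had strongly negative values. Size under these conditions: about 69,000 compounds, about 10 of them at 50% or above in at least one test.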
PfKRS1: 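Lysine-tRNA ligase, Plasmodium falciparum 3D7 (UniProt Q8IDJ8). Enzyme assay of the cytosolic lysyl-tRNA synthetase in 384-well plates, read by luminescence. Tested at 30 µM. Direction is inferred from only a few compounds that gave an IC50; most scored high, so higher reads as stronger inhibition. About 69,000 compounds were tested under these conditions; 0.071% (about 49) showed 50% or more at least once.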
LiHisRS: 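Enzyme assay of histidyl-tRNA synthetase; the read-out is not stated. Target: Histidine-tRNA ligase, Leishmania infantum (UniProt A4I591). Compounds at 30 µM. Direction is inferred from retests: higher values go with stronger inhibition. The assay is labelled LdHisRS but filed under L. infantum. Of about 69,000 compounds tested this way, about 410 (0.6%) reached 50% or more in at least one test.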

Values are the deposited “Percent Effect”, in %. How 0% and 100% were set is not recorded. Most values in the screen are low, and negative values occur. Compounds were drawn at random from those tested, without regard to their results.

{"smiles": "C1CCN(CCOC2CCNCC2)C1", "TcHisRS": 1.961, "ClpP1P2": 3.566, "PfKRS1": -1.259, "LiHisRS": 5.882}
{"smiles": "COc1ccccc1N1CCN(C(=O)c2ccoc2)CC1", "TcHisRS": 5.732, "ClpP1P2": 8.244, "PfKRS1": -0.6401, "LiHisRS": 26.76}
{"smiles": "COC(=O)c1ccc(S(=O)(=O)N2CCCn3ncnc32)s1", "TcHisRS": 3.03, "ClpP1P2": -2.22, "PfKRS1": -2.722, "LiHisRS": -1.064}
{"smiles": "O=C([C@@H]1COC[C@H]2CN(C3CCCCC3)C[C@H]21)N1CCOCC1", "TcHisRS": 1.031, "ClpP1P2": -6.208, "PfKRS1": 4.934, "LiHisRS": 16}
{"smiles": "COc1ccc(C(C)NCCc2ccc(NC(C)=O)cc2)c(OC)c1", "stereo": "stereo not shown", "TcHisRS": 3.015, "ClpP1P2": -11.13, "PfKRS1": 2.152, "LiHisRS": 12.94}
{"smiles": "CCOc1ccc(Cc2c(O)nc(SC)n(-c3ccccc3)c2=O)cc1", "TcHisRS": -1.657, "ClpP1P2": -10.87, "PfKRS1": 2.733, "LiHisRS": 0}
{"smiles": "Cc1cccc(CCC(=O)N2CCOCC2c2c(C)n[nH]c2C)c1", "stereo": "stereo not shown", "TcHisRS": 5.785, "ClpP1P2": -3.863, "PfKRS1": -1.611, "LiHisRS": -3.846}
{"smiles": "Cc1cccc(C2(NC(=O)CCN3C(=O)CCC3=O)CCCC2)c1", "TcHisRS": 3.008, "ClpP1P2": -4.95, "PfKRS1": -1.268, "LiHisRS": -12.36}
{"smiles": "CCS(=O)(=O)NCCCNc1ncnc2cc(F)c(F)cc12", "TcHisRS": 7.853, "ClpP1P2": -0.9817, "PfKRS1": 3.198, "LiHisRS": 12.07}
{"smiles": "Cc1nccc(CNC(=O)NCC(C)Oc2ccccc2F)n1", "stereo": "stereo not shown", "TcHisRS": 1.235, "ClpP1P2": -8.023, "PfKRS1": 1.681, "LiHisRS": 19.35}
{"smiles": "Cc1ccnc(OC[C@]23COC[C@H]2CN(C(=O)c2cnccn2)C3)n1", "TcHisRS": 4.673, "ClpP1P2": -6.222, "PfKRS1": 1.134, "LiHisRS": 9.722}
{"smiles": "Cc1cccc(CN2C[C@@H]3COC[C@]3(CNC(=O)c3ccno3)C2)n1", "TcHisRS": 4.132, "ClpP1P2": 7.339, "PfKRS1": 5.329, "LiHisRS": 12.73}
{"smiles": "Cc1nc2c(c(N3CC=CC3)n1)CCN(Cc1ccoc1)CC2", "TcHisRS": 6.695, "ClpP1P2": -5.761, "PfKRS1": -4.859, "LiHisRS": 12.26}
{"smiles": "Cn1cc(CN2C[C@@H]3COC[C@]3(C(=O)NCc3cccs3)C2)cn1", "TcHisRS": -2.804, "ClpP1P2": -16.9, "PfKRS1": 2.269, "LiHisRS": -4.167}
{"smiles": "CCC(CO)N(Cc1cccs1)C(=O)CSC", "stereo": "stereo not shown", "TcHisRS": -2.469, "ClpP1P2": -9.531, "PfKRS1": 1.252, "LiHisRS": 10.75}
{"smiles": "O=C(O)c1nnn(-c2ccc(F)c(F)c2)c1-c1ccncc1", "TcHisRS": 5.435, "ClpP1P2": 4.296, "PfKRS1": 10.97, "LiHisRS": 22.86}
{"smiles": "CC(C)CC(=O)N1CCC2(CC1)COCCN2Cc1ccc(F)cc1", "TcHisRS": 9.244, "ClpP1P2": 8.397, "PfKRS1": 6.438, "LiHisRS": 19.27}
{"smiles": "Cn1ncc2c1C(COCC1CC1)N(C(=O)c1ccncn1)CC2", "stereo": "stereo not shown", "TcHisRS": 0, "ClpP1P2": -4.403, "PfKRS1": 2.443, "LiHisRS": 13.68}
{"smiles": "Cn1cccc1C(=O)NCc1ccnc(C2CCCOC2)n1", "stereo": "stereo not shown", "TcHisRS": 3.39, "ClpP1P2": -11.87, "PfKRS1": -1.39, "LiHisRS": 6.993}
{"smiles": "CC(C)[C@@H]1CN(C(=O)C2(c3ccccc3)CCN(C)CC2)C[C@H]1N(C)C", "TcHisRS": 8.333, "ClpP1P2": 4.358, "PfKRS1": -0.6212, "LiHisRS": 7.752}
{"smiles": "CC(C)c1ccccc1OCCNC(=O)N1CCC2(CC1)OCCO2", "TcHisRS": 1.657, "ClpP1P2": -2.605, "PfKRS1": 7.47, "LiHisRS": 9.326}
{"smiles": "CCOCC(O)CN1CCN(C(=O)C2CC2)CC1", "stereo": "stereo not shown", "TcHisRS": 0, "ClpP1P2": 10.25, "PfKRS1": 5.322, "LiHisRS": 35.71}
{"smiles": "O=C(COc1ccccc1Cl)N1CCCC(n2ccnc2)C1", "stereo": "stereo not shown", "TcHisRS": 1.425, "ClpP1P2": -9.958, "PfKRS1": -0.5225, "LiHisRS": 10.26}
{"smiles": "CC(Cn1cccn1)NC(=O)Nc1ccc(N2CCCCC2)nc1", "stereo": "stereo not shown", "TcHisRS": 7.407, "ClpP1P2": 2.881, "PfKRS1": -2.684, "LiHisRS": 24.24}
{"smiles": "Cc1nc(C2CCCN2CCCc2nc3ccccc3o2)no1", "stereo": "stereo not shown", "TcHisRS": 2.616, "ClpP1P2": -23.29, "PfKRS1": 1.08, "LiHisRS": 9.649}
{"smiles": "Cc1cc(NC(=O)CN2CCCC2c2noc(C(C)C)n2)no1", "stereo": "stereo not shown", "TcHisRS": 0.565, "ClpP1P2": -30.4, "PfKRS1": -0.6774, "LiHisRS": 6.897}
{"smiles": "COCCNC(=O)c1cc(OC)c2ccoc2c1", "TcHisRS": 1.754, "ClpP1P2": 0.2063, "PfKRS1": -1.071, "LiHisRS": 12.5}
{"smiles": "O=C(CCC(F)(F)F)N1CCCC2(CCC(=O)N(CC3CC3)C2)C1", "stereo": "stereo not shown", "TcHisRS": -1.026, "ClpP1P2": -6.349, "PfKRS1": 2.737, "LiHisRS": 12.24}
{"smiles": "CC(Cn1cccn1)NCc1nc(-c2cccs2)no1", "stereo": "stereo not shown", "TcHisRS": 2.273, "ClpP1P2": 2.373, "PfKRS1": 3.519, "LiHisRS": 13.64}
{"smiles": "NC(=O)c1cn2cc(-c3ccccc3Cl)n(CC3CC3)c(=O)c2n1", "TcHisRS": 7.2, "ClpP1P2": -3.606, "PfKRS1": 8.852, "LiHisRS": 27.87}

Repeated from the top, 2 entries:

- C1CCN(CCOC2CCNCC2)C1 | TcHisRS: 1.961%; ClpP1P2: 3.566%; PfKRS1: -1.259%; LiHisRS: 5.882%
- COc1ccccc1N1CCN(C(=O)c2ccoc2)CC1 | TcHisRS: 5.732%; ClpP1P2: 8.244%; PfKRS1: -0.6401%; LiHisRS: 26.76%